Assay in all cases: co-IP
One assay concerns the target MOG-7b-V5 (C. elegans).
A further assay addresses MOG-7a-V5 (C. elegans).
Assay [1] has as its target MOG-7a(ΔGCFC) (C. elegans).

Results are given in words; binding and its absence hold for the method and conditions named. In cells and extracts the contact can be indirect. Binding calls can cover weak binding; strength is not graded here. Tags and fused reporters may be left off the sequences shown.

B1: FLAG-PRP-19 (protein, UniProt Q10051 1-492)
chain: MSFVCGISGELTEDPVVSQVSGHIFDRRLIVKFIAENGTDPISHGELSEDQLVSLKSGGTGSAPRNVSGTSIPSLLKMLQDEWDTVMLNSFSLRQQLQIARQELSHSLYQHDAACRVISRLSKELTAAREALSTLKPHTSAKVDDDVSIDESEDQQGLSEAILAKLEEKSKSLTAERKQRGKNLPEGLAKTEELAELKQTASHTGIHSTGTPGITALDIKGNLSLTGGIDKTVVLYDYEKEQVMQTFKGHNKKINAVVLHPDNITAISASADSHIRVWSATDSSSKAIIDVHQAPVTDISLNASGDYILSASDDSYWAFSDIRSGKSLCKVSVEPGSQIAVHSIEFHPDGLIFGTGAADAVVKIWDLKNQTVAAAFPGHTAAVRSIAFSENGYYLATGSEDGEVKLWDLRKLKNLKTFANEEKQPINSLSFDMTGTFLGIGGQKVQVLHVKSWSEVVSLSDHSGPVTGVRFGENARSLVTCSLDKSLRVFSF
Turning to B1, the binding result with MOG-7b-V5 (C. elegans) and with MOG-7a-V5 (C. elegans) was “binds” in each case.

B2: FLAG-STIP-1 (protein, UniProt Q17784 1-830)
chain: MEDDDGRESFEINDMDLEYAMNPGGRRRFQNKDQATYGVFAPDSDDDDDEQGTSRGPYKKRSKISAPMSFVSGGIQQGNKIDKDDPASLNLNLGGEKKPKEDDEGSIQIDFDKRTKKAPKQNGAQVFAGMRSSANHGAADINQFGSWMRGDGNSNKIMKMMQAMGYKPGEGLGAQGQGIVEPVQAQLRKGRGAVGAYGKESTATGPKFGESAADAQKRMAQEGTSSRPTNDDQEKSGLKIKGSWKKSQTVKTKYRTIEDVMEEGMSASRPASHQQSQQYSNIKVIDMTGKQQKIYSGYDSFSMKTRSEYDTVDDEERTVFDVPELIHNLNLLVDLTEEGIRRSNQQLISLKDQTTALEYDLQQVQKSLGTEEQEAQHIKDVYELIDGFSSNRSPSMEECQELFRRLRSEFPHEYELYSLETVAIPTVLPLIQKYFVAWKPLEDKNYGCELISTWRDILDDSKNGRKMTFGHNKTKGDEIRAYDRIIWEGILPSIRRACLQWDPSTQMHEMIELVEQWIPLLSAWITENILEQLVVPKIAERVNQWDPMTDEIPIHEWLVPWLVLLGDRIQTVMPPIRQKLSKALKLWDPMDRSALETLRPWQNVWSAATFSAFIAQNIVPKLGVALDTMELNPTMNPEYPEWTACMEWLEFTHPDAIANIVTKYFFPRFYNCLCLWLDSPGVDYNEVKRWYGSWKARIPQVLVNYPTVNENLRRSMIAIGRSLQGEKVGGLQATPIAPMAPPPPMAPHFTQAAPVQKLSLKEIIEYTAGKNGFTYHPQKDRYKDGRQVFWFGALSIYLDSEMVYVMDPIEFVWRPSGLNELIQMAQGAQG
Regarding B2, the binding result (with MOG-7b-V5 (C. elegans); with MOG-7a-V5 (C. elegans); in assay [1]) was “binds” each time.

(Values after article doi:10.1101/2021.06.04.447173.)
